These results are taken from PMC3466219 (PLoS ONE, 2012).

In the assay the test system is AR, PSA, p53 and p21 protein in LNCaP cells.

For `c1cc(SSc2ccns2)sn1` [NU9056, 1,2-Bis(isothiazol-5-yl)disulfane], the “reduction of p21 protein level” value is given as 3 fold and the “reduction of p53 protein level” value worked out at 3 fold.
